# Screen size: about 390,000 compounds; about 760 (0.19%) were called active. The shares of active, inactive and inconclusive entries below differ from those in the screen. Calls come from the whole dose curve; as a rule, active = well fitted inhibition curve with a large enough effect; inconclusive = small, poorly fitted or top-dose-only effect; inactive = flat fitted curve, though single readings scatter. Potencies of inconclusive entries are doubtful fits and often do not repeat.
# Test: qHTS for Inhibitors of Vif-A3F Interactions: qHTS; note: nearly all actives have a fitted effect of over 65% in size; for activity, negative = active: % of control where 0% means no effect
# Settings: HeLa A3F-eYFP + Vif (tagged APOBEC3F with the HIV-1 protein that degrades it), YFP fluorescence increase; series mostly up to 46.1 µM; activity, negative = active: at the top concentration
# Procedure, shortened: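 HeLa cells stably expressing Vif plus C-terminally eYFP-tagged A3F were seeded, incubated overnight at 37 deg C, dosed with compound, incubated overnight again at 37 deg C. Yellow fluorescence (Ex 488/Em 500-530) reported blocked Vif-mediated A3F-eYFP degradation.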
# Potency is the fitted concentration of half-maximal effect.
SMILES,Potency,"activity, negative = active"
CCN(CC)c1ccc(C=C(c2nnnn2-c2ccc(C)cc2)c2nnnn2-c2ccc(C)cc2)cc1,"inconclusive: 11.2 µM [inhibitor, partial curve, poor fit]",–
CCOCCCn1cc(C(=O)c2cc(Br)ccc2O)cc(C#N)c1=O,–,inactive: -7.84%
O=C(O)Cn1c(O)c(C=Nc2ccccc2)sc1=S,inactive,–
O=C(N/N=C/C=C/c1ccco1)c1cccs1,"inconclusive: 25.1 µM [inhibitor, single point]",–
Brc1ccsc1-c1csc(-c2ccncc2)n1,"inconclusive: 5.62 µM [inhibitor, single point]",–
CN1CCN(Cc2cc(COCc3ccccc3)c3cccnc3c2O)CC1,"inconclusive: 15.8 µM [inhibitor, partial curve, poor fit]",–
COc1ccccc1NC(=O)c1sc2ncn(CC(=O)Nc3ccccc3)c(=O)c2c1C,active: 25.1 µM,–
CCOC(=O)c1c(/N=C/C2=C(O)CCCC2=O)sc(C)c1C,–,inactive: -27%
O=c1[nH]c(/C=C\c2cccc(O)c2)nc(O)c1[N+](=O)[O-],–,inactive: -9.34%
Oc1[nH]c2ccc(Br)cc2c1N=NC(=S)NCC1CCCO1 (centres undefined),"inconclusive: 2.82 µM [inhibitor, partial curve, poor fit]",–
CCO[C@@H]1OC(C(=O)NCc2nc3ccccc3[nH]2)=C[C@H](c2ccc(C(F)(F)F)cc2)[C@H]1CCCO,–,inactive: 7.01%
Cc1nc(-c2ccc(Cl)cc2)sc1C(=O)NN,"inconclusive: 28.2 µM [inhibitor, single point]",–
COc1cc(C(=O)N/N=C/c2sc(=O)n(-c3ccccc3)c2Cl)cc(OC)c1OC,"inconclusive: 35.5 µM [inhibitor, single point]",–
Cc1ccc(NC(=O)c2cc3ccccn3n2)cc1F,–,inactive: 1.17%
C=CCNC(=S)N/N=C(\C)c1cccc(OC)c1,"inconclusive: 3.55 µM [inhibitor, single point]",–
COc1ccc2sc(-c3ccc(N(C)C)cc3)c(C#CCCO)c2c1,–,inactive: -4.41%
Cc1cccc(CC(=O)Nc2ccc3nc(N4CCC(C)CC4)cc(C)c3c2)c1,"inconclusive: 25.1 µM [inhibitor, single point]",–
CCCc1oc(C(=O)O)cc1CN,–,inactive: 2.09%
Cc1ccc(CNC(=O)c2cc(-c3ccc(C)cc3)nc3n[nH]c(-c4cccc([N+](=O)[O-])c4)c23)cc1,"inconclusive: 22.4 µM [inhibitor, single point]",–
Cc1ccc(NC(=O)C2CCN(c3ncnc4sc(C)c(C)c34)CC2)cc1S(=O)(=O)N(C)C,"inconclusive: 6.31 µM [inhibitor, single point]",–
CCC(C)NC(=O)CSc1c2c(nc3cc(Cl)ccc13)CCCC2 (centres undefined),"inconclusive: 11.2 µM [inhibitor, partial curve, poor fit]",–
O=C(/C=C/c1ccco1)NC(=S)Nc1ccccc1,"inconclusive: 28.2 µM [inhibitor, single point]",–

# Looked up above.
# `O=c1[nH]c(/C=C\c2cccc(O)c2)nc(O)c1[N+](=O)[O-]` – activity, negative = active: inactive: -9.34%
# `CN1CCN(Cc2cc(COCc3ccccc3)c3cccnc3c2O)CC1` – Potency: inconclusive: 15.8 µM [inhibitor, partial curve, poor fit]

# Carrying on.

SMILES,Potency,"activity, negative = active"
CCn1c(O)c(/C=N/N=C2CCCC2)c2ccc(C3=NNC(=O)CC3)cc21,"inconclusive: 35.5 µM [inhibitor, single point]",–
CCc1ccc(/C=C2/C(=O)N(CC)C(=S)N2C)s1,"inconclusive: 22.4 µM [inhibitor, single point]",–
O=C(NC(=S)NCCC1=CCCCC1)c1ccc(Br)o1,"inconclusive: 35.5 µM [inhibitor, single point]",–
Cc1cccc2cc(CN(CC3CCCO3)C(c3nnnn3Cc3ccco3)C(C)C)c(=O)[nH]c12 (centres undefined),–,inactive: 1.49%
CCOC(=O)CN1C(c2ccc(O)cc2)Nc2ccc(Br)cc2C1c1ccccc1 (centres undefined),–,inactive: 1.63%
COC(=O)CNc1cc(S(=O)(=O)N2CCCCC2)ccc1Oc1cccc(C)c1,"inconclusive: 1.26 µM [inhibitor, partial curve, poor fit]",–
Cc1ccc(C(=O)C[n+]2cccc3ccccc32)cc1,"inconclusive: 35.5 µM [inhibitor, single point]",–
CC(=O)N[C@@H](Cc1c[nH]c2ccccc12)C(=O)OCc1ccc(C#N)cc1,"inconclusive: 17.8 µM [inhibitor, partial curve, poor fit]",–
O=C(NC(=O)c1cccc(F)c1)OC[C@@H]1CCCN2CCCC[C@H]12,–,inactive: 1.43%
Cc1ccc(C(=O)N[C@H](C(=O)Nc2sccc2C(N)=O)C(C)C)cc1,"inconclusive: 25.1 µM [inhibitor, single point]",–
CCCN1CCc2c(sc(NC(=O)c3ccc(S(=O)(=O)N4CCCC4)cc3)c2C(N)=O)C1,"inconclusive: 22.4 µM [inhibitor, partial curve, poor fit]",–
CC(C)c1ccccc1-n1c(SCc2cc(=O)oc3ccc4ccccc4c23)nnc1-c1cccnc1,–,inactive: -15.4%
CCCn1nnnc1NCc1c(Cl)cccc1Cl,"inconclusive: 8.91 µM [inhibitor, partial curve, poor fit]",–
CN(C)CCNc1ccc2nnn3c4ccc(O)cc4c(=O)c1c23,"inconclusive: 35.5 µM [inhibitor, single point]",–
CC(C)C[C@H](NC(=O)c1[nH]cnc1C(=O)N[C@@H](Cc1ccccc1)C(=O)OC(C)(C)C)C(=O)OC(C)(C)C,"inconclusive: 35.5 µM [inhibitor, single point]",–
Cc1ccc(NC(=O)c2ccc(NCc3ccco3)c([N+](=O)[O-])c2)cc1Cl,active: 8.91 µM,–
Cc1ccc2c(C(=O)CN3CCCC(C)C3)c(C)[nH]c2c1 (centres undefined),"inconclusive: 35.5 µM [inhibitor, single point]",–
Cc1ccc2occ(-c3cc(-c4ccc(F)cc4)nc4c3COc3ccc(F)cc3-4)c(=O)c2c1,–,inactive: -4.24%
O=c1c(-c2ccccc2)cnc2n1CCS2,"inconclusive: 35.5 µM [inhibitor, single point]",–
CCCn1cc(NC(=O)C2CC(c3cccc(Br)c3)=NO2)cn1 (centres undefined),–,inactive: 3.11%
COc1ccc(-c2cc(C(F)(F)F)c3c(n2)sc2c(O)cc(=O)[nH]c23)c(OC)c1,"inconclusive: 17.8 µM [inhibitor, partial curve, poor fit]",–
COc1ccc(CNC(=O)c2cc3ccccn3n2)cc1OC,–,inactive: 3.58%
